Assay results taken from article PMC9020517.
Results are given in words; binding and its absence hold for the method and conditions named. In cells and extracts the contact can be indirect. Some entries that bind do so weakly or less than the wild type.

The chains behind the UniProt entries cited, without tags or fusion partners. Residues count along the entry.
UniProt Q15843, residues 1-76: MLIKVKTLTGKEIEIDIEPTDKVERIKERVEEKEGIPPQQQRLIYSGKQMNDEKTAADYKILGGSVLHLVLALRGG
UniProt Q9UBN7: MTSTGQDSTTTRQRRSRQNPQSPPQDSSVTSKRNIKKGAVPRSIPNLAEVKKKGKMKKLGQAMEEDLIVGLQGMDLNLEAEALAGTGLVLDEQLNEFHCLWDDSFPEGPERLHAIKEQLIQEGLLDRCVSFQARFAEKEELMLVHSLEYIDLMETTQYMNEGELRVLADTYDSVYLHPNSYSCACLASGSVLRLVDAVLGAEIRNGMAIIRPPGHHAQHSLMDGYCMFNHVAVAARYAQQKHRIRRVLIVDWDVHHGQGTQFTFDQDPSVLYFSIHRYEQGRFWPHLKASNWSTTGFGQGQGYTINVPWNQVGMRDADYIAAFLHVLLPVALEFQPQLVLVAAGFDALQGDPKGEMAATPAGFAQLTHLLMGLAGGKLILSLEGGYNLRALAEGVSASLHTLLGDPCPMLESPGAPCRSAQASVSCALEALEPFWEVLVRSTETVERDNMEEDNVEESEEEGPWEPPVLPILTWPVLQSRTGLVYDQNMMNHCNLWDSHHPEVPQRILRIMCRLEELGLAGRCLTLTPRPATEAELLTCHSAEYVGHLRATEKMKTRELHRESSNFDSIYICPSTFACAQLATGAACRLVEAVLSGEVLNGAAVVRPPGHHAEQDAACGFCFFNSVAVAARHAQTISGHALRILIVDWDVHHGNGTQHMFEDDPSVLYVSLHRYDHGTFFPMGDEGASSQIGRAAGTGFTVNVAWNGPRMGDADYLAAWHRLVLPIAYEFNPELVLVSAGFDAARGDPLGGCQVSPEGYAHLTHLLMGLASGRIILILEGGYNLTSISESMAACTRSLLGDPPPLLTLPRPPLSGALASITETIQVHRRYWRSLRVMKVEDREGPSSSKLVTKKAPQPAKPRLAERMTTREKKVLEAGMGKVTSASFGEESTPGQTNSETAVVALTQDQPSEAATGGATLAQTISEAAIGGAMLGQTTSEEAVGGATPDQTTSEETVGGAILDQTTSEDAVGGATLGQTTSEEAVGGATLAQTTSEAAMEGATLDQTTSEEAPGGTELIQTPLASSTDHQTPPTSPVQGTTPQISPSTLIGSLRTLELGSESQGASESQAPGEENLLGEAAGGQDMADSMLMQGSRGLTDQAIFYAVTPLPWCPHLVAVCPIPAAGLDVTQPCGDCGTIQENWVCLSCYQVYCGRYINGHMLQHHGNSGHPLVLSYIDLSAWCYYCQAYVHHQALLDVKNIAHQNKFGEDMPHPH

Target: Strep-pNEDD8 (human NEDD8 1-76 phosphorylated at S65, N-terminal Strep-tag II) (human) (UniProt Q15843)
Assay: pull-down; affinity enrichment as for AE-MS with Strep-Ub/NEDD8 variants as bait and HEK293T cell lysate; 10% of the eluate analysed by Western blot with antibodies specific for the respective protein; only the target purified

HDAC6 (from UniProt Q9UBN7 1-1215)
binding: binds
